Source: patent US7629169B2, “Methods for the production of platelet-derived growth factor-responsive neural precursor cells” (Stem Cell Therapeutics Corp., priority 2004, dated 2009)
Some of these results come from one statement about several compounds together.

System: PDGF-responsive neural precursors (PRPs) from dissociated E14 MGE/LGE
Test: Primary neurosphere generation from dissociated E14 ganglionic eminences
Format: cell-based, mouse
Conditions: E14 MGE vs LGE
Description: Cell culture. The culture medium (MHM) was composed of DMEM/F-12 (1:1) including HEPES buffer (5 mM), glucose (0.6%), sodium bicarbonate (3 mM), glutamine (2 mM), insulin (25 μg/ml), transferrin (100 μg/ml), progesterone (20 nM), putrescine (10 μM), and sodium selenite (30 nM; all from Sigma, St. Louis, Mo., except glutamine from Invitrogen, Carlsbad, Calif.). The lateral, medial, or both ganglionic eminences (LGE, MGE or both) were removed from Embryonic Day 14 (E14) mouse embryos and mechanically dissociated with a fire-polished Pasteur pipette in MHM. Cells were plated at a density of […] unless otherwise indicated.
For neurosphere generation, PDGF-AA (100 ng/ml; Peprotech, Rocky Hill, N.J.), PDGF-BB (100 ng/ml; Peprotech), EGF (20 ng/ml; Peprotech), FGF2 (20 ng/ml; R&D [Minneapolis, Minn.])+heparan sulfate (2 μg/ml; HS; R&D), SHH (2 ug/ml; R&D), cyclopamine (5 μM; Toronto Research Chemicals, North York, Ontario), and/or DMSO (0.1%; carrier) was added to the MHM. MHM used to generate neurospheres also contained 2% B27 (Invitrogen).
[…] is one of the earliest markers of OLPs, and signaling by PDGF-AA is required for the generation of most oligodendrocytes (Fruttiger et al., Development 126:457 (1999)). […]
The effect of brain-derived neurotrophic factor (BDNF), neurotrophin-3 (NT-3), and nerve growth factor (NGF) on PRPs was determined. […]

PDGF-AA: platelet-derived growth factor AA, 100 ng/ml; Peprotech
neurospheres produced by MGE relative to LGE: > 4 fold
